{"source": "paper PMC3795677", "binders": {"B1": {"name": "TorS-mYFP (sensory histidine kinase TorS with C-terminal monomeric yellow fluorescent protein EYFP A206K) (protein, UniProt P39453 1-914)", "chain": "MNLTLTRRLWMGFALMALLTLTSTLVGWYNLRFISQVEKDNTQALIPTMNMARQLSEASAWELFAAQNLTSADNEKMWQAQGRMLTAQSLKINALLQALREQGFDTTAIEQQEQEISRSLRQQGELVGQRLQLRQQQQQLSQQIVAAADEIARLAQGQANNATTSAGATQAGIYDLIEQDQRQAAESALDRLIDIDLEYVNQMNELRLSALRVQQMVMNLGLEQIQKNAPTLEKQLNNAVKILQRRQIRIEDPGVRAQVATTLTTVSQYSDLLALYQQDSEISNHLQTLAQNNIAQFAQFSSEVSQLVDTIELRNQHGLAHLEKASARGQYSLLLLGMVSLCALILILWRVVYRSVTRPLAEQTQALQRLLDGDIDSPFPETAGVRELDTIGRLMDAFRSNVHALNRHREQLAAQVKARTAELQELVIEHRQARAEAEKASQAKSAFLAAMSHEIRTPLYGILGTAQLLADNPALNAQRDDLRAITDSGESLLTILNDILDYSAIEAGGKNVSVSDEPFEPRPLLESTLQLMSGRVKGRPIRLATAIADDMPCALMGDPRRIRQVITNLLSNALRFTDEGYIILRSRTDGEQWLVEVEDSGCGIDPAKLAEIFQPFVQVSGKRGGTGLGLTISSRLAQAMGGELSATSTPEVGSCFCLRLPLRVATAPVPKTVNQAVRLDGLRLLLIEDNPLTQRITIEMLKTSGAQIVAVGNAAQALETLQNSEPFAAALVDFDLPDIDGITLARQLAQQYPSLVLIGFSAHVIDETLRQRTSSLFRGIIPKPVPREVLGQLLAHYLQLQVNNDQSLDVSQLNEDAQLMGTEKIHEWLVLFTQHALPLLDEIDIARASQDSEKIKRAAHQLKSSCSSLGMHIASQLCAQLEQQPLSAPLPHEEITRSVAALEAWLHKKDLNAI"}, "B2": {"name": "EvgS-mYFP (sensory histidine kinase EvgS with C-terminal monomeric yellow fluorescent protein EYFP A206K) (protein, UniProt P30855 22-1197)", "chain": "DEDYIEYRGISSNNRVTLDPLRLSNKELRWLASKKNLVIAVHKSQTATLLHTDSQQRVRGINADYLNLLKRALNIKLTLREYADHQKAMDALAEGEVDIVLSHLVTSPPLNNDIAATKPLIITFPALVTTLHDSMRPLTSPKPVNIARVANYPPDEVIHQSFPKATIISFTNLYQALASVSAGHNDYFIGSNIITSSMISRYFTHSLNVVKYYNSPRQYNFFLTRKESVILNEVLNRFVDALTNEVRYEVSQNWLDTGNLAFLNKPLELTEHEKQWIKQHPNLKVLENPYSPPYSMTDENGSVRGVMGDILNIITLQTGLNFSPITVSHNIHAGTQLSPGGWDIIPGAIYSEDRENNVLFAEAFITTPYVFVMQKAPDSEQTLKKGMKVAIPYYYELHSQLKEMYPEVEWIQVDNASAAFHKVKEGELDALVATQLNSRYMIDHYYPNELYHFLIPGVPNASLSFAFPRGEPELKDIINKALNAIPPSEVLRLTEKWIKMPNVTIDTWDLYSEQFYIVTTLSVLLVGSSLLWGFYLLRSVRRRKVIQGDLENQISFRKALSDSLPNPTYVVNWQGNVISHNSAFEHYFTADYYKNAMLPLENSDSPFKDVFSNAHEVTAETKENRTIYTQVFEIDNGIEKRCINHWHTLCNLPASDNAVYICGWQDITETRDLINALEVEKNKAIKATVAKSQFLATMSHEIRTPISSIMGFLELLSGSGLSKEQRVEAISLAYATGQSLLGLIGEILDVDKIESGNYQLQPQWVDIPTLVQNTCHSFGAIAASKSIALSCSSTFPEHYLVKIDPQAFKQVLSNLLSNALKFTTEGAVKITTSLGHIDDNHAVIKMTIMDSGSGLSQEEQQQLFKRYSQTSAGRQQTGSGLGLMICKELIKNMQGDLSLESHPGIGTTFTITIPVEISQQVATVEAKAEQPITLPEKLSILIADDHPTNRLLLKRQLNLLGYDVDEATDGVQALHKVSMQHYDLLITDVNMPNMDGFELTRKLREQNSSLPIWGLTANAQANEREKGLSCGMNLCLFKPLTLDVLKTHLSQLHQVAHIAPQYRHLDIEALKNNTANDLQLMQEILMTFQHETHKDLPAAFQALEAGDNRTFHQCIHRIHGAANILNLQKLINISHQLEITPVSDDSKPEILQLLNSVKEHIAELDQEIAVFCQKND"}, "B3": {"name": "TorR-mCFP (response regulator TorR fused to monomeric cyan fluorescent protein) (protein, UniProt P38684 1-230)", "chain": "MPHHIVIVEDEPVTQARLQSYFTQEGYTVSVTASGAGLREIMQNQSVDLILLDINLPDENGLMLTRALRERSTVGIILVTGRSDRIDRIVGLEMGADDYVTKPLELRELVVRVKNLLWRIDLARQAQPHTQDNCYRFAGYCLNVSRHTLERDGEPIKLTRAEYEMLVAFVTNPGEILSRERLLRMLSARRVENPDLRTVDVLIRRLRHKLSADLLVTQHGEGYFLAADVC"}}, "key": {"[1]": {"target": "T1, TorS-mYFP (sensory histidine kinase TorS with C-terminal monomeric yellow fluorescent protein EYFP A206K) (E. coli) (UniProt P39453)", "T1 sequence": "B1 chain", "experiment": "FRET or BRET; homo-FRET read as steady-state fluorescence anisotropy of mYFP-tagged sensors in live MG1655 cells immobilised on a coverslip; expression varied with 0-100 µM IPTG; low anisotropy taken as self-association"}, "[2]": {"target": "EvgS-mYFP (sensory histidine kinase EvgS with C-terminal monomeric yellow fluorescent protein EYFP A206K) (E. coli) (UniProt P30855)", "experiment": "FRET or BRET; homo-FRET read as steady-state fluorescence anisotropy of mYFP-tagged sensors in live MG1655 cells immobilised on a coverslip; expression varied with 0-100 µM IPTG; low anisotropy taken as self-association"}, "[3]": {"target": "T1, TorS-mYFP (sensory histidine kinase TorS with C-terminal monomeric yellow fluorescent protein EYFP A206K) (E. coli)", "experiment": "FRET or BRET; spectral-shift FRET by acceptor photobleaching in live E. coli cells co-expressing an mCFP and an mYFP fusion; mYFP bleached 20 s with a 532 nm laser; an increase of the CFP signal of more than 0.5 % counts as a positive FRET pair"}}, "note": "Results are given in words; binding and its absence hold for the method and conditions named. Binding seen in cells or lysates may run through a third protein. Some binding calls cover weakened binding; strength is not graded here. Tags and fused reporters may be left off the sequences shown."}
{"binder": "B1", "values": [{"measurement": "binding", "setting": "[1]", "value": "binds"}]}
{"binder": "B2", "values": [{"measurement": "binding", "setting": "[2]", "value": "binds"}]}
{"binder": "B3", "values": [{"measurement": "binding", "setting": "[3]", "value": "binds"}]}
